Measured values as given in PubChem BioAssay AID1487 (National Center for Advancing Translational Sciences (NCATS), 2009).
Among all 200,000 compounds or so, about 25 (0.01%) were called active. The shares of active, inactive and inconclusive entries below differ from those in the screen. The call rests on the fitted dose curve; in most records, active means well fitted inhibition curve with a large enough effect in the signal ratio, with a control signal flat (not every such curve was filed as active); inconclusive means small, poorly fitted or top-dose-only effect, or effect the other way, or a change in a side signal; inactive means flat fitted curve, though single readings scatter; the % refers to the signal ratio. A potency beside an inconclusive call is a rough fit, not a confirmed value.

Assay: qHTS Assay for Modulators of Lamin A Splicing
Conditions: HeLa LMNA splicing GFP/RFP minigene ratio, 48 h; ratio change, negative = inhibition: at 46.1 µM (top of the series) unless noted
Outline: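 S3 HeLa cells stably expressing lamin A-EGFP splicing minigene plus DsRed2, 600 cells/well, 48 h compound exposure at 37C. Laser-scanning cytometry; analysed as GFP (500-530 nm)/RFP (575-640 nm) total intensity ratio; 0.5% DMSO vehicle.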
On the % scale 0 is the no-effect control and ±100 the full control effect; potency means the concentration at half of the fitted maximal effect.

Row | Structure (SMILES) | ratio change, negative = inhibition | Potency
1 | COc1ccc(C2=NN(CC(=O)NCCCN(C)c3ccccc3)C(=O)CC2)cc1 | inconclusive: -9.3% [at 46 µM] | –
2 | COc1cc2c(cc1OC)CN(Cc1ccc(OC)c(C)c1OC)CC2 | inactive: -12.6% | –
3 | Clc1ccc(-c2cn3nc4c(nc3n2)CCCC4)cc1 | inactive: -2.53% | –
4 | CCn1c(C(C#N)/C(=N\S(=O)(=O)c2cccs2)c2ccccc2)nc2ccccc21 (stereo not drawn) | inactive: 4.75% | –
5 | Cc1cc2cc(CN(CCCO)S(=O)(=O)c3cccc4nsnc34)c(=O)[nH]c2cc1C | inactive: 7.36% | –
6 | O=C(NC(C(=O)c1ccccc1)N1CCCCC1)c1ccccc1 (stereo not drawn) | inactive: 1.87% | –
7 | CCOC(=O)c1ccc(NC(=O)CSc2nnc(CNc3ccc(OC)cc3)n2C)cc1 | inactive: -0.669% | –
8 | COc1ccc(N2C(=O)CSC23C(=O)Nc2ccccc23)cc1OC (stereo not drawn) | inactive: -18.8% | –
9 | O=C(O)CCC(=O)N1CCc2cc(S(=O)(=O)N3CC=C(c4ccccc4)CC3)ccc21 | inactive: -9.18% | –
10 | O=C1C2CC=CCC2C(=O)N1Cc1ccccc1Cl (stereo not drawn) | inconclusive: 8.52% | –
11 | CCCCN1C(=O)C2(NNc3ccccc3O2)c2ccccc21 (stereo not drawn) | inactive: 4.17% | –
12 | O=C(COC(=O)c1ccccc1C(=O)c1ccc(Cl)c([N+](=O)[O-])c1)NC1CCCCCC1 | – | inconclusive: 35.5 µM [cytotoxic, single point]
13 | COc1cccc(N/C(SCc2ccccc2C)=C(/C#N)C(=O)NCc2cccs2)c1 | inactive: -6.33% | –
14 | O=C1c2cccc3c([N+](=O)[O-])c(O)cc(c23)C(=O)N1Nc1ccccc1 | inconclusive: -26.1% [at 46 µM] | –
15 | CC(=O)c1sc(NC(=O)c2cccnc2Cl)nc1C | inconclusive: 15.9% [at 46 µM] | –
16 | O=C(Nc1ccccc1)c1cc2ccccc2o1 | inactive: -4.33% | –
17 | Cc1ccc(NCCC(=O)c2cccs2)cc1C | – | inconclusive: 17.8 µM [inhibitor, single point]
18 | CCOc1cc(C(=O)Nc2ccc3c4c(cccc24)C(=O)N3CC)cc(OCC)c1OCC | inconclusive: -30.6% | –
19 | Cc1ccc(NC(=O)C(=O)NCC(c2cccnc2)N2CCc3ccccc32)cc1Cl (stereo not drawn) | inactive: 1.28% [at 46 µM] | –
20 | CCN(CC)Cc1c(O)ccc2occ(C(=O)c3ccc(OC)cc3)c12 | inactive: -8.98% | –

Row | Structure (SMILES) | ratio change, negative = inhibition | Potency
21 | COc1ccc(CC(=O)Nc2nc(C)cs2)cc1OC | – | inconclusive: 12.6 µM [fluorescent, partial curve]
22 | Cn1c(=O)c2c(nc(CN3CCOCC3)n2CCc2ccccc2)n(C)c1=O | inactive: 4.93% | –
23 | COc1ccc(NC(=O)COCc2cc(-c3cccs3)on2)cc1 | inconclusive: 2.89% [at 46 µM] | –
24 | CC12CCC(C1)C(C)(C)C2=O (stereo not drawn) | inconclusive: 8.33% | –
25 | C/C(=N\NC(=O)COc1ccccc1F)c1cc2ccccc2o1 | inconclusive: -43.3% | –
26 | CCOC(=O)CCNC(=O)c1ccccc1Br | inactive: 2.91% | –
27 | CNc1ccccc(-c2ccc3cc4c(cc3n2)OCO4)c1=O | inactive: -1.06% | –
28 | O=S(=O)(c1ccc(Cl)cc1)N1CCN=C1SCc1cccc(Cl)c1 | – | inconclusive: 35.5 µM [fluorescent, single point]
29 | COc1ccc(C2NC(=S)NC3=C2CCc2cc(OC)ccc23)cc1 (stereo not drawn) | inactive: 8.66% | –
30 | Cc1cccc(N2CCN(C(=S)NCc3ccco3)CC2)c1C | – | inconclusive: 35.5 µM [fluorescent, single point]
31 | COC(=O)c1ccccc1S(=O)(=O)N1CCc2nc(-c3ccc(OC)cc3C)c3c(c2C1)CO[C@@H](c1ccccc1)C3 | inactive: -5.11% [at 9.22 µM] | –
32 | CCc1cc(-c2n[nH]c(=S)n2-c2ccccc2C)cs1 | inactive: 8.13% | –
33 | O=C(O)c1ccccc1NC(=S)NC(NC(=O)c1ccccc1[N+](=O)[O-])C(Cl)(Cl)Cl (stereo not drawn) | inconclusive: 46% | –
34 | Cc1ccc(C(=O)N(CC(=O)Nc2ccc(Cl)c(Cl)c2)Cc2ccco2)cc1 | inconclusive: -0.425% | –
35 | COc1ccccc1NC1=NC(c2ccc(Cl)cc2)N=C(N)N1 (stereo not drawn) | inconclusive: -31.6% | –
36 | CNc1cc(-c2ccccc2C(F)(F)F)ncn1 | inactive: -4.37% | –
37 | NC(=O)c1sc2nc3c(c(-c4cccs4)c2c1N)CCCC3 | inconclusive: -11.2% | –
38 | Cc1nc(-n2[nH]c3c(c2=O)CCCC3)[nH]c(=O)c1Cc1ccccc1 | – | inconclusive: 35.5 µM [inhibitor, single point]
39 | Clc1ccc(-c2nn3c(-c4ccncc4)nnc3s2)c(Cl)c1 | inconclusive: 3.88% | –
40 | CC1CCCCN1c1nnc(N)s1 (stereo not drawn) | inconclusive: 5.49% | –

Row | Structure (SMILES) | ratio change, negative = inhibition | Potency
41 | O=C(O)c1cccc(N/N=C/c2cccnc2)c1 | inconclusive: 15.9% [at 46 µM] | –
42 | COc1cc(NC(=O)CC(C)n2nc(C)cc2C)cc(OC)c1 (stereo not drawn) | inconclusive: -7.94% [at 46 µM] | –
43 | COc1cc(NC(=O)C(CCSC)NS(=O)(=O)c2ccc3c(c2)oc(=O)n3C)cc(OC)c1 (stereo not drawn) | inactive: -6.63% [at 46 µM] | –
44 | CN(c1ccc(OCc2nnc(-c3ccccc3)o2)cc1)S(=O)(=O)c1ccccc1 | inactive: -14.3% | –
45 | O=C(COC(=O)c1cccs1)NCc1ccccc1 | inactive: 4.51% | –
46 | Cc1ccc(SCC(=O)NCCN2C(=O)CSC2=O)c(C)c1 | inactive: -11.5% | –
47 | O=c1c(-c2cccs2)nc2cnc(Nc3ccccc3)nc2n1C[C@H]1CCCO1 | inconclusive: 50.4% | –
48 | CC(CC(=O)Nc1cc([N+](=O)[O-])ccc1Cl)c1ccccc1 (stereo not drawn) | inactive: 4.39% | –
49 | CCN(CC)S(=O)(=O)c1cccc(C(=O)N2CCCCC2)c1 | inactive: 4.64% | –
50 | CC1(Cn2ccnn2)[C@H](C(=O)O)N2C(=O)C[C@H]2S1(=O)=O (stereo partly drawn) | inconclusive: 1.3% | –
51 | Cc1ccccc1NC1=C(C(=O)c2ccccc2)N(C)S(=O)(=O)c2ccccc21 | inconclusive: 19.1% | –
52 | CCCCCCCC#Cc1ccccc1/C=N/S(=O)c1ccc(C)cc1 (stereo not drawn) | inconclusive: 0.314% | –
53 | O=C(CSc1ccc(-c2nc3ccccc3[nH]2)cn1)Nc1ccc2c(c1)OCCO2 | inactive: -5.59% | –
54 | COc1cc2c(cc1OC)CN(C(=O)CSc1nc3[nH]ncc3c(=O)n1-c1ccccc1)CC2 | inactive: -7.38% | –
55 | COc1cccc(C(=O)Nc2ccc3c(c2)C(=O)N(CCC(=O)O)C3=O)c1 | inactive: 10% | –
56 | COc1ccc(-c2cc(C(=O)N3CCc4ccccc4C3)no2)cc1OC | inactive: -2.96% | –
57 | COc1cc2c(cc1OC)C(c1ccc(-c3ccc(Cl)cc3Cl)o1)=NCC2 | inconclusive: 0.529% | –
58 | O=C(CCc1nnc(CCCCc2ccccc2)o1)NCCc1cccnc1 | inconclusive: 24.5% [at 46 µM] | –
